Measurements reported in PubChem BioAssay AID504793 (Drosophila RNAi Screening Center, 2011).
The screen tested about 23,000 reagents; below is a random part of those with a known target gene and a result. Of all reagents, 62 (0.27%) got an active call. 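Calls come from follow-up tests whose scores are not deposited, so confirmed genes may have low counts here; counts are not normalised per plate.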 The raw values are shown without normalisation. Entries without a mark were called inactive. A plus sign joins genes that one reagent is predicted to hit.

- Assay: 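Whole-genome screen for parts of the DNA damage checkpoint at G2/M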 (primary screen)
- Cell system: Drosophila S2R+ cells
- Knock-down reagent: long dsRNA against Drosophila genes, about 0.25 µg dsRNA per well
- Timing: 4 days of dsRNA, then 4 hours of drug before read-out
- Treatment: doxorubicin 0.5 µM for 4 hours to cause double-strand breaks, in cells also given a low, harmless dose of dsRNA against nbs to sensitise the assay
- Read-out: 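Per-well count of mitotic cells stained for phospho-histone H3 after doxorubicin exposure, used as mitotic index; counts are raw and not normalised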
- Scale: mitotic cells: higher = more cells in mitosis, weaker G2 arrest
- Call rule: 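Genes are called active only when high mitotic counts were reproduced with independent dsRNAs and mitosis was checked for delay without damage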
- Meaning of the calls: active = confirmed in follow-up tests; inactive = not confirmed

{"Gene": "CG13589", "dsRNA": "DRSC04225", "mitotic cells, replicate 1": 5}
{"Gene": "CG13589", "dsRNA": "DRSC26885", "mitotic cells, replicate 1": 3}
{"Gene": "CG33080", "dsRNA": "DRSC18080", "mitotic cells, replicate 1": 7}
{"Gene": "CG33080", "dsRNA": "DRSC18081", "mitotic cells, replicate 1": 14}
{"Gene": "CG33080", "dsRNA": "DRSC18285", "mitotic cells, replicate 1": 8}
{"Gene": "CG33080", "dsRNA": "DRSC25974", "mitotic cells, replicate 1": 3}
{"Gene": "CG30187", "dsRNA": "DRSC22461", "mitotic cells, replicate 1": 10}
{"Gene": "NfI", "dsRNA": "DRSC17158", "mitotic cells, replicate 1": 10}
{"Gene": "Paf-AHalpha", "dsRNA": "DRSC20267", "mitotic cells, replicate 1": 13}
{"Gene": "Lsp1beta", "dsRNA": "DRSC00757", "mitotic cells, replicate 1": 3}
{"Gene": "Lsp1beta", "dsRNA": "DRSC24940", "mitotic cells, replicate 1": 2}
{"Gene": "udt", "dsRNA": "DRSC14214", "mitotic cells, replicate 1": 10}
{"Gene": "Nrx-IV", "dsRNA": "DRSC11238", "mitotic cells, replicate 1": 4}
{"Gene": "CG13581", "dsRNA": "DRSC04216", "mitotic cells, replicate 1": 7}
{"Gene": "Ucp4A", "dsRNA": "DRSC19996", "mitotic cells, replicate 1": 4}
{"Gene": "Ucp4A", "dsRNA": "DRSC27013", "mitotic cells, replicate 1": 10}
{"Gene": "CG5116", "dsRNA": "DRSC15720", "mitotic cells, replicate 1": 8}
{"Gene": "Ste:CG33238 + Ste:CG33241 + Ste:CG33244 + 10 more", "dsRNA": "DRSC26515", "mitotic cells, replicate 1": 6}
{"Gene": "CG9130 + CG9133", "dsRNA": "DRSC08624", "mitotic cells, replicate 1": 8}
{"Gene": "CG9130 + CG9133", "dsRNA": "DRSC08625", "mitotic cells, replicate 1": 8}
{"Gene": "CG9130 + CG9133", "dsRNA": "DRSC22010", "mitotic cells, replicate 1": 8}
{"Gene": "CG9130 + CG9133", "dsRNA": "DRSC29697", "mitotic cells, replicate 1": 10}
{"Gene": "CG31872", "dsRNA": "DRSC02568", "mitotic cells, replicate 1": 3}
{"Gene": "CG31872", "dsRNA": "DRSC02572", "mitotic cells, replicate 1": 6}

Laid out differently: entries from further up.
Gene,dsRNA,"mitotic cells, replicate 1"
CG13589,DRSC26885,3
CG33080,DRSC18080,7
CG33080,DRSC18081,14
